Article PMC10163288
The list shows a part of the results.

B1: il2ra_site1_1z92_normal_mot_HHH_b1_03515_000000289_0001_1_19_H_._HHH_b2_04566_af2_0001_0000100001_0000001_0 (protein)
chain: SSSDEEQARRSLERLVEDAVKLAGLSEEQKEKLEELVEELIERGVDFLEAIKLIDELARELSSSS
B2: il2ra_site2_2erj_normal_mot_HHH_b1_00210_af2_000000043_0001_43_57_H_._HHH_b1_00702_0001_0000100006_0000001_0 (protein)
chain: SSSSDREEVEELLKELEEAYEEGDEEKFEELASRASVLIFQIGDFELWSELAELFAKLNKSSSSS
B3: il2ra_site1_3nfp_sap_12_mot_HHH_b1_04676_af2_000000031_0001_1_20_H_._HHH_b1_01857_0001_0000200015_0000001_0_0001 (protein)
chain: AVEFFLRVLFRKGNPEYAEKALEEALKAMGVFSPEEIEELLRLLKEAIEKRDPELLRRVEELARK
B4: il2ra_site2_3nfp_normal_mot_HHH_b2_06150_000000217_0001_39_53_H_._HHH_b1_00394_0001_0000500016_0000001_1 (protein)
chain: SSSSSDRERLEELLEEIEEAIKNGNEEEVRRLLAEVTHLAFRAGDSEVFFLVAELLFEFTSSSSS
B5: il2ra_site2_3nfp_normal_mot_HHH_b1_07543_000000150_0001_38_55_H_._HHH_b1_08180_0001_0000400017_0000001_0 (protein)
chain: SSSSDLVEEAERVVEEALEKLREEGDEEVLKYLEAALILLELTGDPRLAHAVLALAEAVLSSSSS
B6: il2ra_site1_2b5i_normal_mot_f5ff40796168375b462bec8614a1db4a_0001_1_000000138_0001_53_65_H_._HHH_b1_07482_0001_0000100004_0000001_0_af2pred_dldesign_0_af2pred (protein)
chain: SSSSSKSNIDIKEVVDLADEVAEEDPELAKRLLLLALRIAKKSNDEEAIKEIEERLKELESSSSS
B7: il2ra_site1_2b5i_normal_mot_HHH_b1_04959_000000285_0001_43_56_H_._HHH_b1_02339_0001_0000100002_0000001_0_af2pred_dldesign_0_af2pred (protein)
chain: SSSSSPLAKRTLEFLKEAVEQGDKEAFDYYYEYLKRHIEKHGDEEAKKELEKLKKEFEKLLSSSS
B8: il2ra_site1_1z92_sap_13_mot_d5167a162c519d043ddc16d89768c28c_0001_1_af2_000000001_0001_35_49_H_._e38714b7eaf634bf3645433aba93d827_0001_0001_0000100007_0000001_0 … (protein)
chain: SSSSSDEEAVEMILRAARRAREKGNPERAEEFLEFAKRHAEARHDPELEELVRKVERELGSSSSS
B9: il2ra_site1_2b5i_normal_mot_HHH_b1_08745_af2_000000166_0001_39_57_H_._HHH_b2_04087_0001_0000300019_0000001_0_af2pred_dldesign_0_af2pred (protein)
chain: SSSSSVGKKVLELLKKADEALKAGKLEEARKLLEEAERLAKEGKMNGWLKFIEACRKQLESSSSS
B10: il2ra_site2_3nfp_sap_23_mot_HHH_b1_01221_af2_000000126_0001_40_57_H_._HHH_b2_02896_0001_0000200006_0000001_0_0001 (protein)
chain: SSSSSKAEKYLRVVLEIAERALEQGDPEVARRSLEIAEEMARSQGTPLVEEVERLLEELNSSSSS
B11: il2ra_site2_3nfp_normal_mot_HHH_b1_04497_000000281_0001_1_18_H_._HHH_b2_05984_0001_0000600034_0000001_0 (protein)
chain: SSSSSSTWEFSTEALVEHLEEEGNPELAEELKRLLEEIREEGDPELRLELYKLLREIWSSSSSSS
B12: il2ra_site1_1z92_sap_22_mot_HHH_b1_06033_000000254_0001_1_19_H_._HHH_b1_03862_0001_0000300014_0000001_0_0001_af2pred_0001_af2pred (protein)
chain: SSSSSKELVEIIAELAAEFRLSLEALRELTKLALELLERGYSEEEIRRLLEELAEELAEGSSSSS
B13: il2ra_site1_2b5i_sap_12_mot_HHH_b2_02510_000000222_0001_42_55_H_._ea9dbf872bd896a6772730c64f198f4a_0001_0001_0000400032_0000001_0_0001_af2pred_dldesign_0_af2pre … (protein)
chain: SSSSSAGRELRRLVREADRLFKAGKPEEAKALLEKALELAEKLGATLWVKFIKLALKQIESSSSS
B14: il2ra_site2_3nfp_sap_16_mot_HHH_b1_08097_000000036_0001_22_39_H_._HHH_b1_03703_0001_0000100004_0000001_0_0001 (protein)
chain: SSSSDKSEEYLRIALELLEEAQKAGDEEVARSIAHVAKIAAESLNDEEIEKELEEILEELSSSSS
B15: il2ra_site1_1z92_normal_mot_HHH_b2_04090_000000052_0001_1_16_H_._a0b4aa5fea5d48080b95578646bcd77a_0001_1_af2_0001_0000100006_0000001_0_af2pred_0001_af2pred_1 (protein)
chain: GKEEALELLKELAEKLNDPALRFLAEDLEKLLKRDPEAARRVLRKSVKVAGNPVLQEVLELLESD
B16: il2ra_site2_2erj_sap_24_mot_HHH_b1_00821_000000191_0001_1_20_H_._HHH_b1_05660_0001_0000900016_0000001_0_0001 (protein)
chain: SSSSSDAIEDVARNLEKLAREKGNEEAEEVVEEALEAFRKGILSLRQVFELLNRAMQLLSSSSSS
B17: il2ra_site2_2erj_sap_27_mot_6c2800a769814540b5b47941e710ff28_0001_000000197_0001_35_49_H_._HHH_b1_00672_0001_0000100006_0000001_0_0001 (protein)
chain: SSSSDWLHRLYELANRIMHLIANGDPEEARRLLEELEELAEEADSPAAEKVVENLEKKIESSSSS
B18: il2ra_site2_3nfp_normal_mot_HHH_b1_05392_000000081_0001_38_55_H_._ems_4hM_3012_0002_af2_0001_0000100004_0000001_0 (protein)
chain: DEEEELEKKAEKAAKKQDPELANEVVRLALDNPEAWEELRRVLEEKNNLELLYELNLRFYEERYS
B19: il2ra_site1_1z92_normal_mot_6335285afc518479a1c42dd74dc897f1_0001_1_000000127_0001_16_32_H_._0c3bf8cb9d93094680b22e24baf1e485_0001_0001_0000200018_0000001_0 (protein)
chain: SVLELIKEILEELGNPDLAKFVERAIERYRKLGVPPETIVKALELIARKHGDPDLLEAIELAEER
B20: il2ra_site1_3nfp_normal_mot_HHH_b2_01680_af2_000000278_0001_1_15_H_._HHH_b2_04095_af2_0001_0000100003_0000001_0 (protein)
chain: SSSSTEERKEVERIFRELFKAAREGDEEKAEELAEELEELARERGDKLYLRSAEAALKLLSSSSS
B21: il2ra_site2_2erj_normal_mot_HHH_b2_01275_af2_000000073_0001_23_39_H_._HHH_b2_00463_0001_0000200014_0000001_0 (protein)
chain: SSSSSDKEEVEEEVEEILRRAEETDDLREAYKLAARALRLASELGDPELLELVAKVLERLSSSSS
B22: il2ra_site2_3nfp_normal_mot_HHH_b1_05627_af2_000000038_0001_43_56_H_._HHH_b1_05526_af2_0001_0000100005_0000001_0 (protein)
chain: SSSSDKAEEYVRAAMEAARYALEDGNPEVARRSLELARQLAESLGNEELREEVEELLQELSSSSS
B23: il2ra_site2_2erj_normal_mot_HHH_b1_06554_000000001_0001_44_57_H_._HHH_b1_02402_0001_0000200030_0000001_0_af2pred_0001_af2pred (protein)
chain: SSSSSAERIYELAEEADELALEGDDEEARRVVEEAEELARESNSRSARRALEIALKSIELLSSSS
B24: il2ra_site2_3nfp_normal_mot_HHH_b1_00660_af2_000000090_0001_40_57_H_._HHH_b1_00725_af2_0001_0000100011_0000001_0_af2pred_0001_af2pred (protein)
chain: SSSSDEFLEEIEREVRELIEEGDQEEAERVLKRAAHEVSERRNHEEFAIVTLLLELLERFFSSSS

The binders below were run against il2ra, P01589 (assay: yeast display titration).
In the case of B1, the “apparent Kd” value is reported as “inactive: no binding seen”. With B2 the “apparent Kd” value was “inactive: no binding seen”. B3 was tested, and the “apparent Kd” value was “inactive: no binding seen”. For B4, the “apparent Kd” value was “inactive: no binding seen”. In the case of B5, the “apparent Kd” value is reported as “inactive: no binding seen”. For B6, the “apparent Kd” value was “inactive: no binding seen”. For B7, the “apparent Kd” value was “inactive: no binding seen”. In the case of B8, the “apparent Kd” value is reported as “inactive: no binding seen”. B9 was tested, and the “apparent Kd” value was “inactive: no binding seen”. In the case of B10, the “apparent Kd” value is reported as “inactive: no binding seen”. For B11, the “apparent Kd” value was “inactive: no binding seen”. B12 was tested, and the “apparent Kd” value was “inactive: no binding seen”. B13 was tested, and the “apparent Kd” value was “inactive: no binding seen”. For B14, the “apparent Kd” value was “inactive: no binding seen”. In the case of B15, the “apparent Kd” value is reported as “inactive: no binding seen”. For B16, the “apparent Kd” value was “inactive: no binding seen”. In the case of B17, the “apparent Kd” value is reported as “inactive: no binding seen”. B18 was tested, and the “apparent Kd” value was “inactive: no binding seen”. For B19, the “apparent Kd” value was “inactive: no binding seen”. For B20, the “apparent Kd” value was “inactive: no binding seen”. In the case of B21, the “apparent Kd” value is reported as “inactive: no binding seen”. With B22 the “apparent Kd” value was “inactive: no binding seen”. With B23 the “apparent Kd” value was “inactive: no binding seen”. For B24, the “apparent Kd” value was “inactive: no binding seen”.
